Data published in the supplement of paper PMC5355238.
Structures can show the parent of a compound that is named as a salt. The list shows a part of the results. Most values lie at the level of the controls, where differences are scatter.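 Using flow cytometry, the assay measures the median γH2AX antibody signal in S-phase Reh cells (a human leukemia line). Each score is the number of standard deviations from the median difference of paired plate sets. Candidate hits scored above 2.5; compounds scoring below -2 lowered MK1775-induced damage.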

What follows are compounds tested on Reh (assay: Z' of S-phase gammaH2AX difference (drug + MK1775 minus drug alone) (Z-score); higher = stronger synergistic S-phase DNA damage with MK1775). Settings: MK1775 concentration 400 nM; first compound 10 µM; 4 h.
With `CC(=O)[C@]1(O)Cc2c(O)c3c(c(O)c2[C@@H](O[C@H]2C[C@H](N)[C@H](O)[C@H](C)O2)C1)C(=O)c1ccccc1C3=O` [Idarubicin] + C=CCn1c(=O)c2cnc(Nc3ccc(N4CCN(C)CC4)cc3)nc2n1-c1cccc(C(C)(C)O)n1 [MK1775] the “Z' of S-phase gammaH2AX difference (Z-score)” value was inactive: 2.31.
For `CC(=O)[C@]1(O)Cc2c(O)c3c(c(O)c2[C@@H](O[C@H]2C[C@H](N)[C@H](O)[C@H](C)O2)C1)C(=O)c1ccccc1C3=O` [Idarubicin HCl] + C=CCn1c(=O)c2cnc(Nc3ccc(N4CCN(C)CC4)cc3)nc2n1-c1cccc(C(C)(C)O)n1 [MK1775], the “Z' of S-phase gammaH2AX difference (Z-score)” value was inactive: -1.04.
For `Cn1ccc2cc(NC(=O)Nc3cccnc3)ccc21` + C=CCn1c(=O)c2cnc(Nc3ccc(N4CCN(C)CC4)cc3)nc2n1-c1cccc(C(C)(C)O)n1 [MK1775], the “Z' of S-phase gammaH2AX difference (Z-score)” value was inactive: -0.21.
`CS(=O)(=O)N1CCc2c(-c3cnc(N)nc3)nc(N3CCOCC3)nc21` + C=CCn1c(=O)c2cnc(Nc3ccc(N4CCN(C)CC4)cc3)nc2n1-c1cccc(C(C)(C)O)n1 [MK1775] was tested, and the “Z' of S-phase gammaH2AX difference (Z-score)” value was inactive: -0.0584.
`COc1ccc(C2CNC(=O)C2)cc1OC1CCCC1` (configuration not stated) [Rolipram] + C=CCn1c(=O)c2cnc(Nc3ccc(N4CCN(C)CC4)cc3)nc2n1-c1cccc(C(C)(C)O)n1 [MK1775] was tested, and the “Z' of S-phase gammaH2AX difference (Z-score)” value was inactive: -0.771.
For `O=c1c(O)c(-c2ccc(O)cc2O)oc2cc(O)cc(O)c12` [Morin] + C=CCn1c(=O)c2cnc(Nc3ccc(N4CCN(C)CC4)cc3)nc2n1-c1cccc(C(C)(C)O)n1 [MK1775], the “Z' of S-phase gammaH2AX difference (Z-score)” value was inactive: 0.859.
With `CC(/C=C/c1cccc(Oc2ccc(F)cc2)c1)N(O)C(N)=O` (configuration not stated) + C=CCn1c(=O)c2cnc(Nc3ccc(N4CCN(C)CC4)cc3)nc2n1-c1cccc(C(C)(C)O)n1 [MK1775] the “Z' of S-phase gammaH2AX difference (Z-score)” value was inactive: -0.712.
`CC(=O)Nc1nc(C)c(-c2ccc(Cl)c(S(=O)(=O)NCCO)c2)s1` + C=CCn1c(=O)c2cnc(Nc3ccc(N4CCN(C)CC4)cc3)nc2n1-c1cccc(C(C)(C)O)n1 [MK1775] was tested, and the “Z' of S-phase gammaH2AX difference (Z-score)” value was inactive: -0.178.
For `Cc1ccc([N+](=O)[O-])cc1S(=O)(=O)N(C)C` + C=CCn1c(=O)c2cnc(Nc3ccc(N4CCN(C)CC4)cc3)nc2n1-c1cccc(C(C)(C)O)n1 [MK1775], the “Z' of S-phase gammaH2AX difference (Z-score)” value was inactive: -0.0802.
In the case of `CC(C)C[C@H](NP(=O)(O)O[C@H]1O[C@H](C)[C@@H](O)[C@H](O)[C@@H]1O)C(=O)N[C@@H](Cc1c[nH]c2ccccc12)C(=O)O` [Phosphoramidon disodium] + C=CCn1c(=O)c2cnc(Nc3ccc(N4CCN(C)CC4)cc3)nc2n1-c1cccc(C(C)(C)O)n1 [MK1775], the “Z' of S-phase gammaH2AX difference (Z-score)” value is reported as inactive: -0.199.
`Oc1ccc([C@@H]2CNCc3sccc32)cc1O` + C=CCn1c(=O)c2cnc(Nc3ccc(N4CCN(C)CC4)cc3)nc2n1-c1cccc(C(C)(C)O)n1 [MK1775] was tested, and the “Z' of S-phase gammaH2AX difference (Z-score)” value was inactive: -0.203.
In the case of `Nc1nc2c(nc(Br)n2C2OC3COP(=O)(O)O[C@@H]3C2O)c(=O)[nH]1` (some centres not stated) [8-Bromo-cGMP sodium] + C=CCn1c(=O)c2cnc(Nc3ccc(N4CCN(C)CC4)cc3)nc2n1-c1cccc(C(C)(C)O)n1 [MK1775], the “Z' of S-phase gammaH2AX difference (Z-score)” value is reported as inactive: -0.354.
With `CN(C)c1nc(N(C)C)nc(N(C)C)n1` [Altretamine] + C=CCn1c(=O)c2cnc(Nc3ccc(N4CCN(C)CC4)cc3)nc2n1-c1cccc(C(C)(C)O)n1 [MK1775] the “Z' of S-phase gammaH2AX difference (Z-score)” value was inactive: 0.15.
For `CN(C)c1nc(N(C)C)nc(N(C)C)n1` [Altretamine (Hexalen)] + C=CCn1c(=O)c2cnc(Nc3ccc(N4CCN(C)CC4)cc3)nc2n1-c1cccc(C(C)(C)O)n1 [MK1775], the “Z' of S-phase gammaH2AX difference (Z-score)” value was inactive: -0.301.
For `CC(=O)O[C@]1(C(C)=O)CC[C@H]2[C@@H]3C[C@H](C)C4=CC(=O)CC[C@]4(C)[C@H]3CC[C@@]21C` [Medroxyprogesterone acetate] + C=CCn1c(=O)c2cnc(Nc3ccc(N4CCN(C)CC4)cc3)nc2n1-c1cccc(C(C)(C)O)n1 [MK1775], the “Z' of S-phase gammaH2AX difference (Z-score)” value was inactive: 0.104.
In the case of `CCCNCC(O)COc1ccccc1C(=O)CCc1ccccc1` (configuration not stated) [Propafenone hydrochloride] + C=CCn1c(=O)c2cnc(Nc3ccc(N4CCN(C)CC4)cc3)nc2n1-c1cccc(C(C)(C)O)n1 [MK1775], the “Z' of S-phase gammaH2AX difference (Z-score)” value is reported as inactive: 0.00485.
With `CCCCCCCCCCCCCCCCCC(=O)OC(CC(=O)O)C[N+](C)(C)C` (racemic) [DL-Stearoylcarnitine chloride] + C=CCn1c(=O)c2cnc(Nc3ccc(N4CCN(C)CC4)cc3)nc2n1-c1cccc(C(C)(C)O)n1 [MK1775] the “Z' of S-phase gammaH2AX difference (Z-score)” value was inactive: -1.62.
For `COc1ccccc1OCC(O)CN1CCN(CC(=O)Nc2c(C)cccc2C)CC1` (configuration not stated) [Ranolazine dihydrochloride] + C=CCn1c(=O)c2cnc(Nc3ccc(N4CCN(C)CC4)cc3)nc2n1-c1cccc(C(C)(C)O)n1 [MK1775], the “Z' of S-phase gammaH2AX difference (Z-score)” value was inactive: 0.228.
`COc1ccccc1OCC(O)CN1CCN(CC(=O)Nc2c(C)cccc2C)CC1` (configuration not stated) [Ranolazine (Ranexa)] + C=CCn1c(=O)c2cnc(Nc3ccc(N4CCN(C)CC4)cc3)nc2n1-c1cccc(C(C)(C)O)n1 [MK1775] was tested, and the “Z' of S-phase gammaH2AX difference (Z-score)” value was inactive: 0.134.
In the case of `O=[N+]([O-])c1cccc2cn[nH]c12` [7-Nitroindazole] + C=CCn1c(=O)c2cnc(Nc3ccc(N4CCN(C)CC4)cc3)nc2n1-c1cccc(C(C)(C)O)n1 [MK1775], the “Z' of S-phase gammaH2AX difference (Z-score)” value is reported as inactive: 0.097.
For `CC(C)[C@@H]1NC(=O)[C@H](CCCCN)NC(=O)[C@@H](Cc2c[nH]c3ccccc23)NC(=O)[C@H](Cc2ccc(O)cc2)NC(=O)[C@H](C)N(C)C(=O)[C@H](Cc2ccccc2)NC1=O` [Seglitide] + C=CCn1c(=O)c2cnc(Nc3ccc(N4CCN(C)CC4)cc3)nc2n1-c1cccc(C(C)(C)O)n1 [MK1775], the “Z' of S-phase gammaH2AX difference (Z-score)” value was inactive: -0.0802.
In the case of `COc1cc([C@@H]2c3cc4c(cc3[C@@H](O[C@@H]3O[C@@H]5CO[C@@H](C)O[C@H]5[C@H](O)[C@H]3O)[C@H]3COC(=O)[C@H]23)OCO4)cc(OC)c1O` [Etoposide] + C=CCn1c(=O)c2cnc(Nc3ccc(N4CCN(C)CC4)cc3)nc2n1-c1cccc(C(C)(C)O)n1 [MK1775], the “Z' of S-phase gammaH2AX difference (Z-score)” value is reported as active: 6.63.
